No constants are given. Whether binding was seen depends on the method and setting.

The target in this assay is LplT, lysophospholipid transporter, as a BACTH fusion (E. coli) (UniProt P39196). The assay can be described thus: two-hybrid; BACTH (bacterial adenylate cyclase two-hybrid): T18 and T25 fusions coexpressed in E. coli BTH101, spotted on X-Gal LB agar, 48 h at 30 °C; blue colonies and β-galactosidase assays.

“LplT, lysophospholipid transporter, as a BACTH fusion (from UniProt P39196 1-397)”: the binding result is recorded as “no binding”.

The record behind these values is PMC11416262.
